Test results from the supplement of paper PMC10849652.
The other results are listed elsewhere or left out.

By UniProt entry, the sequences of proteins in these tests, tags left out. Where a name states a change or a piece, a line headed by the entry shows the natural chain unless it says otherwise.
UniProt Q9BX10: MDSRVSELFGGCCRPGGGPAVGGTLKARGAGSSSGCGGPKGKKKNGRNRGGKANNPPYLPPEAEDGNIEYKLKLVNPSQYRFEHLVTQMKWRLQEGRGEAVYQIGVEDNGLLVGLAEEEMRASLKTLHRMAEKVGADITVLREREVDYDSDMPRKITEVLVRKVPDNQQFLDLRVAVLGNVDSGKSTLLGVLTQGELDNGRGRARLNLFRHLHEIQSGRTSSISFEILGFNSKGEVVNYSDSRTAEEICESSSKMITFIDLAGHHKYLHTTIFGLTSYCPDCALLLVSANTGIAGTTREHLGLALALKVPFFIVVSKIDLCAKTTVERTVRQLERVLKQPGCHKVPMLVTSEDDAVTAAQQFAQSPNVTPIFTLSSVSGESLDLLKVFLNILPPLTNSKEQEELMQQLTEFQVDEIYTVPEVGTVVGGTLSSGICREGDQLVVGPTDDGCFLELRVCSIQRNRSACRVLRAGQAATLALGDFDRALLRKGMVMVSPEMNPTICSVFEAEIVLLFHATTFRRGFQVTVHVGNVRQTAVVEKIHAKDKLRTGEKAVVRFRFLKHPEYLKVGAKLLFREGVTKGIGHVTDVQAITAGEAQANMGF
UniProt Q8TAA5: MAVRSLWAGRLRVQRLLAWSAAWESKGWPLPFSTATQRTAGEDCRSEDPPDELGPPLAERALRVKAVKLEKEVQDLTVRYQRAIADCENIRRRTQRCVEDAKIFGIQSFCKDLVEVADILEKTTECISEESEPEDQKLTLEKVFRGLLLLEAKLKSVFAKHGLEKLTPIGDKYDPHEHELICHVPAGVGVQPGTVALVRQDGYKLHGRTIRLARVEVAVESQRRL
UniProt Q9P0R6: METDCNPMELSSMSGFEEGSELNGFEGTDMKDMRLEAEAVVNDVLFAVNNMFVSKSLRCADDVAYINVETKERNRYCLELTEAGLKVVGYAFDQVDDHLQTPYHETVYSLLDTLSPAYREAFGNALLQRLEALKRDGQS
UniProt Q03013: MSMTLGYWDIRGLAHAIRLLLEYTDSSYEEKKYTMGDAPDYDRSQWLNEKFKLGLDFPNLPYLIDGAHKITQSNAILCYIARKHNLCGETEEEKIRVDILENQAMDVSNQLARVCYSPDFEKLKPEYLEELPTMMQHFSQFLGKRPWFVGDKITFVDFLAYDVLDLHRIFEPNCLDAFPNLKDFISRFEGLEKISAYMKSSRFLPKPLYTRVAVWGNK
UniProt P52657, whole entry, looked up: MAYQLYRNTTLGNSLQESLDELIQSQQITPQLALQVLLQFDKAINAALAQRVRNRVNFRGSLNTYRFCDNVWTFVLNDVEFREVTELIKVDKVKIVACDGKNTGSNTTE
UniProt P78417: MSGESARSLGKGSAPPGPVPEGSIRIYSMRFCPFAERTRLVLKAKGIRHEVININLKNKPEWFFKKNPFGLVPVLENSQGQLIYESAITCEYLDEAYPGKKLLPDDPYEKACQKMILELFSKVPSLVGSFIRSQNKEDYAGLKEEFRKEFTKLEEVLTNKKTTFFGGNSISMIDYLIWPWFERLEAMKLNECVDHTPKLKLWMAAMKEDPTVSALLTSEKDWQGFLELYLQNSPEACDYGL
UniProt P62993, whole entry, looked up: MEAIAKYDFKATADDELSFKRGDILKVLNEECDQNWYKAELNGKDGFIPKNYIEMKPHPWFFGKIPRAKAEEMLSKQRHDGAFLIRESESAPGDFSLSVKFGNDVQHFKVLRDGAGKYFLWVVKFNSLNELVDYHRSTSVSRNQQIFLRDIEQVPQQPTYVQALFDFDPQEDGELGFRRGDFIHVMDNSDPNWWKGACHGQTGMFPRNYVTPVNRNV
UniProt Q969F1: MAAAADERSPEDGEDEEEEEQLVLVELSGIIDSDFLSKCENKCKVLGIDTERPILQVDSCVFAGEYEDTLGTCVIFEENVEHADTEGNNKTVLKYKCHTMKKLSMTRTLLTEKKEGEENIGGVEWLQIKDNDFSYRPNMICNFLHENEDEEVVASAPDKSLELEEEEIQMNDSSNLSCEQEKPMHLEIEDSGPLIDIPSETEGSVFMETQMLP
UniProt Q9Y5Q8: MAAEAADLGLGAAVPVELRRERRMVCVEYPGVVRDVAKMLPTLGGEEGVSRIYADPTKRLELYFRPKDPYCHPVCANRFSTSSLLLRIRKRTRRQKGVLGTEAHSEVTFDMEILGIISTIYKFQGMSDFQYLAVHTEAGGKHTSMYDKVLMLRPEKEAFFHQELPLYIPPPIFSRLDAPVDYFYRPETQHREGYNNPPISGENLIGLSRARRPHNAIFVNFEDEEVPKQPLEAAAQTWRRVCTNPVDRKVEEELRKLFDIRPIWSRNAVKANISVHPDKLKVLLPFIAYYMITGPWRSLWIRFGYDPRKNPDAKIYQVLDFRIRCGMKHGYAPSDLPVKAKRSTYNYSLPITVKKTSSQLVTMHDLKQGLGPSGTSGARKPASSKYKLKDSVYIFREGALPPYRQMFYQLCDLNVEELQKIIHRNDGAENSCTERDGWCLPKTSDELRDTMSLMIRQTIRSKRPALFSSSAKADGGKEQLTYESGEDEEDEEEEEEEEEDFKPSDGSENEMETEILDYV
UniProt P02100: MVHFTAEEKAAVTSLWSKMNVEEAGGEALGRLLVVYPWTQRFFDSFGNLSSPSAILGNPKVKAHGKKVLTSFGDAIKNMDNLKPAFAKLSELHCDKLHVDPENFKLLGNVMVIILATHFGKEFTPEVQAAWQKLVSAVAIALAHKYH
UniProt Q8WW33: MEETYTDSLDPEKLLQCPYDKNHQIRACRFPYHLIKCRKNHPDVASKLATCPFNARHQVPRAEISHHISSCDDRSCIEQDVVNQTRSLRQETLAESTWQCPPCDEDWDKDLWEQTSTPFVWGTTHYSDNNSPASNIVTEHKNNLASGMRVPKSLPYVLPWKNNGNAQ
UniProt Q8N4P3, whole entry, looked up: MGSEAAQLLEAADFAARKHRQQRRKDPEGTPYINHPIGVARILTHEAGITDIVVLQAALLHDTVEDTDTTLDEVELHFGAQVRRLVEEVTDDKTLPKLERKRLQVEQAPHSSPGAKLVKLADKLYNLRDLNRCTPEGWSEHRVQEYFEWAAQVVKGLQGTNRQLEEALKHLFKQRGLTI
UniProt Q4V328: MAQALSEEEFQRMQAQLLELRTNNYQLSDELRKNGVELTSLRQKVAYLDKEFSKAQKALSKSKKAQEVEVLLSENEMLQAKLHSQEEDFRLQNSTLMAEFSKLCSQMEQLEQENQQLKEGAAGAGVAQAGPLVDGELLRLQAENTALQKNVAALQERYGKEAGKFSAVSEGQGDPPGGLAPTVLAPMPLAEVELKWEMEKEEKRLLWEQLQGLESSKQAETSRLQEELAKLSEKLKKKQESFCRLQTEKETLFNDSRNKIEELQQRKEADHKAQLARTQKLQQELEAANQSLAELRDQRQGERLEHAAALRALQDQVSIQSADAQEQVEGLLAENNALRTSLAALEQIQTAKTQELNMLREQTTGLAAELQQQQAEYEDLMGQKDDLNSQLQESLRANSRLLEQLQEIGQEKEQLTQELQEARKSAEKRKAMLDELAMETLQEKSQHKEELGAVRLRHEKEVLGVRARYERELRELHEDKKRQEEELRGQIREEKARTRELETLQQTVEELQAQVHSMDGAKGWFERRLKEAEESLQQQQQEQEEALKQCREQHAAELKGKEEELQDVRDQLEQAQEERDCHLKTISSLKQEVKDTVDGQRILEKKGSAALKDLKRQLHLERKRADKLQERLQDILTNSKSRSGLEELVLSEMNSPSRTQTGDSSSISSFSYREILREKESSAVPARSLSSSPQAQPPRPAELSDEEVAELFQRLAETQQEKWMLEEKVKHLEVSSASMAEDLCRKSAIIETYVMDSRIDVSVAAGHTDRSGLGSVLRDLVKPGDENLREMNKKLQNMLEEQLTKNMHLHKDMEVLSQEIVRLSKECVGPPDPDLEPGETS
UniProt P28161: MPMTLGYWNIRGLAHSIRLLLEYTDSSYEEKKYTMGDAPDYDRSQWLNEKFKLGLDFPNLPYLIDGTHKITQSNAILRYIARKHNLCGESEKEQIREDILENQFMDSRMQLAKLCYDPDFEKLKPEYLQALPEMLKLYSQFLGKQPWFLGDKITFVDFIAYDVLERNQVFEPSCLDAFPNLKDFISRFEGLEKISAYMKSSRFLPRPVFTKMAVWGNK

Experiments:
Experiment in all cases: log2 fold change, soluble protein after heating vs DMSO (PISA); higher = thermal stabilisation; K562 lysate, 10 uM; active = over 0.2 and 3.5 SD of the protein, either way, in both replicates (recomputed)
alvocidib = compound: CN1CC[C@H](c2c(O)cc(O)c3c(=O)cc(-c4ccccc4Cl)oc23)[C@H](O)C1 [alvocidib]
In short: (§1)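 Quantification was by TMTpro 16plex LC-MS/MS with equalised channel sums, applied to the supernatant after 21,000xg for 90 min. Samples were crude K562 extract at 1 mg/mL protein in PBS pH 7.4 with 1 mM MgCl2, treated with 10 μM compound for 30 min, heated for 3 min across 48°C-58°C, pooled and brought to 0.5% NP-40 at 4°C. Values are log-two fold changes in thermal stability relative to solvent controls, from duplicates.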

Tubastatin A = compound: CN1CCc2c(c3ccccc3n2Cc2ccc(C(=O)NO)cc2)C1 [Tubastatin A]
In short: as §1

[1] = compound: CNC(=O)C1=CC=CC=C1NC2=NC(=NC=C2Cl)NC3=C(C=C(C=C3)N4CCOCC4)OC
In short: as §1

defactinib = compound: CNC(=O)c1ccc(Nc2ncc(C(F)(F)F)c(NCc3nccnc3N(C)S(C)(=O)=O)n2)cc1 [defactinib]
In short: as §1

[2] = compound: CNc1nc(-c2ccc3c(N)n[nH]c3c2)cc(N2C[C@@H](C(=O)NC3CCCCC3)CC[C@H]2C)n1
In short: as §1

encorafenib = compound: COC(=O)N[C@@H](C)CNc1nccc(-c2cn(C(C)C)nc2-c2cc(Cl)cc(NS(C)(=O)=O)c2F)n1 [encorafenib]
In short: as §1

[3] = compound: COC(=O)[C@H](CCSC)NC(=O)C1=C(C=C(C=C1)NC[C@H](CS)N)C2=CC=CC=C2
In short: as §1

alisertib = compound: COc1cc(Nc2ncc3c(n2)-c2ccc(Cl)cc2C(c2c(F)cccc2OC)=NC3)ccc1C(=O)O [alisertib]
In short: as §1

[4] = compound: COc1cc2nc(-c3cc(F)ccc3O)nc(N[C@@H]3CNC[C@H]3C(C)(C)O)c2cc1OC
In short: as §1

gefitinib = compound: COc1cc2ncnc(Nc3ccc(F)c(Cl)c3)c2cc1OCCCN1CCOCC1 [gefitinib]
In short: as §1

Measured: log2 fold change

GTPBP2 (UniProt Q9BX10)
inactive: alvocidib -0.001 | Tubastatin A -0.045 | [1] 0.039 | defactinib 0.018 | [2] -0.037 | encorafenib 0.002 | [3] 0.079 | alisertib 0.034 | [4] -0.07 | gefitinib 0.058

GRPEL2 (UniProt Q8TAA5)
inactive: alvocidib -0.041 | Tubastatin A -0.038 | [1] 0.083 | defactinib 0.007 | [2] 0.008 | encorafenib -0.08 | [3] 0.103 | alisertib -0.045 | [4] -0.154 | gefitinib 0.03

GSKIP (UniProt Q9P0R6)
inactive: alvocidib 0.07 | Tubastatin A 0.059 | [1] -0.013 | defactinib 0.018 | [2] 0.021 | encorafenib 0.746 | [3] -0.136 | alisertib 0.049 | [4] -0.087 | gefitinib -0.124

H2AFX (UniProt P16104)
inactive: alvocidib -0.105 | Tubastatin A 0.035 | [1] -0.024 | defactinib 0.042 | [2] 0.091 | encorafenib 0.002 | [3] 0.078 | alisertib -0.074 | [4] -0.012 | gefitinib -0.009

GSTM4 (UniProt Q03013)
inactive: alvocidib 0.006 | Tubastatin A -0.012 | [1] 0.029 | defactinib 0.006 | [2] 0.077 | encorafenib -0.117 | [3] 0.095 | alisertib 0.03 | [4] 0.002 | gefitinib 0.075

GTF2A2 (UniProt P52657)
inactive: alvocidib 0.006 | Tubastatin A 0.014 | [1] 0.029 | defactinib 0.011 | [2] 0.055 | encorafenib 0.008 | [3] -0.024 | alisertib 0.032 | [4] -0.008 | gefitinib -0.053

GSTO1 (UniProt P78417)
inactive: alvocidib 0.045 | Tubastatin A 0.032 | [1] -0.015 | defactinib -0.01 | [2] -0.023 | encorafenib -0.007 | [3] -0.018 | alisertib 0.002 | [4] -0.026 | gefitinib -0.007

GRB2 (UniProt P62993)
inactive: alvocidib 0.006 | Tubastatin A -0.002 | [1] -0.013 | defactinib 0.006 | [2] 0.012 | encorafenib -0.003 | [3] -0.049 | alisertib 0.015 | [4] -0.004 | gefitinib 0.008

GTF3C6 (UniProt Q969F1)
inactive: alvocidib -0.031 | Tubastatin A -0.087 | [1] -0.006 | defactinib 0.046 | [2] -0.031 | encorafenib 0.053 | [3] 0.013 | alisertib 0.014 | [4] 0.045 | gefitinib 0.054

GTF3C5 isoform 3 (UniProt Q9Y5Q8)
inactive: alvocidib -0.005 | Tubastatin A -0.166 | [1] 0.029 | defactinib 0.014 | [2] -0.012 | encorafenib 0.01 | [3] 0.153 | alisertib 0.004 | [4] 0.001 | gefitinib -0.004

HBE1 (UniProt P02100)
inactive: alvocidib 0.067 | Tubastatin A 0.084 | [1] 0.026 | defactinib 0.091 | [2] 0.022 | encorafenib 0.004 | [3] -0.089 | alisertib 0.02 | [4] -0.017 | gefitinib -0.145

GTSF1 (UniProt Q8WW33)
inactive: alvocidib -0.014 | Tubastatin A 0.046 | [1] 0.029 | defactinib -0.012 | [2] 0.042 | encorafenib -0.009 | [3] -0.048 | alisertib -0.016 | [4] 0.013 | gefitinib -0.034

2 records drawn at random from those above, as already listed:
GRB2 (UniProt P62993)
inactive: alvocidib 0.006 | Tubastatin A -0.002 | [1] -0.013 | defactinib 0.006 | [2] 0.012 | encorafenib -0.003 | [3] -0.049 | alisertib 0.015 | [4] -0.004 | gefitinib 0.008

GTSF1 (UniProt Q8WW33)
inactive: alvocidib -0.014 | Tubastatin A 0.046 | [1] 0.029 | defactinib -0.012 | [2] 0.042 | encorafenib -0.009 | [3] -0.048 | alisertib -0.016 | [4] 0.013 | gefitinib -0.034

The results go on:

HDDC3 (UniProt Q8N4P3)
inactive: alvocidib 0.008 | Tubastatin A 0.046 | [1] -0.025 | defactinib -0.038 | [2] -0.13 | encorafenib 0.058 | [3] 0.043 | alisertib 0.005 | [4] -0.014 | gefitinib -0.01

GRIPAP1 (UniProt Q4V328)
inactive: alvocidib 0.015 | Tubastatin A 0.026 | [1] 0.023 | defactinib 0.004 | [2] 0.007 | encorafenib 0.005 | [3] -0.056 | alisertib 0.011 | [4] -0.013 | gefitinib -0.006

GSTM2 (UniProt P28161)
inactive: alvocidib 0.079 | Tubastatin A 0.045 | [1] 0.009 | defactinib 0.036 | [2] -0.016 | encorafenib -0.024 | [3] 0.068 | alisertib 0.01 | [4] -0.015 | gefitinib 0.034
